Test results as given in the supplement of paper PMC6078165.

Tested on: BT20
Experiment: relative JC-1 red fluorescence (viability) vs pre-drug, coculture with fibroblast (fraction); higher = more viable cancer cells
Conditions: 1 µM
Protocol: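 JC-1 labelled TNBC cells cocultured 1:1 (1,500 cells each) with CellTrace Violet stained primary or stromal fibroblasts in 384-well plates in FluoroBrite medium, treated with one of 42 anticancer drugs at 0.1, 1, 10 or 100 uM. JC-1 red fluorescence (mitochondrial integrity in cancer cells only) was read by plate reader every 8 h for 72 h. Values are normalised to each well's pre-drug value. The stock of one drug was tenfold lower, so its dose labels may be too high.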

CCC1=C[C@@H]2CN(C1)Cc1c([nH]c3ccccc13)[C@@](C(=O)OC)(c1cc3c(cc1OC)N(C)[C@H]1[C@@](O)(C(=O)OC)[C@H](OC(C)=O)[C@]4(CC)C=CCN5CC[C@]31[C@@H]54)C2 [Vinorelbine]
relative JC-1 red fluorescence
Conditions	8 h	16 h	24 h	32 h	40 h	48 h	56 h	64 h	72 h
coculture fibroblast: C12385	0.933 ± 0.048	0.865 ± 0.053	0.841 ± 0.075	0.784 ± 0.08	0.72 ± 0.079	0.675 ± 0.084	0.619 ± 0.073	0.582 ± 0.075	0.552 ± 0.075
coculture fibroblast: H6013	0.942 ± 0.057	0.896 ± 0.029	0.92 ± 0.069	0.871 ± 0.077	0.839 ± 0.09	0.815 ± 0.09	0.822 ± 0.11	0.813 ± 0.098	0.794 ± 0.09
coculture fibroblast: H6019	0.884 ± 0.019	0.859 ± 0.046	0.88 ± 0.087	0.832 ± 0.11	0.793 ± 0.12	0.777 ± 0.14	0.742 ± 0.13	0.736 ± 0.13	0.731 ± 0.12
coculture fibroblast: H6076	0.982 ± 0.013	0.9069 ± 0.0048	0.8376 ± 0.004	0.807 ± 0.019	0.773 ± 0.042	0.734 ± 0.02	0.706 ± 0.033	0.687 ± 0.034	0.659 ± 0.035
coculture fibroblast: H6231	0.8851 ± 0.0073	0.954 ± 0.032	0.823 ± 0.014	0.7429 ± 0.0048	0.66 ± 0.019	0.606 ± 0.015	0.533 ± 0.015	0.503 ± 0.0084	0.465 ± 0.027
coculture fibroblast: HADF	0.873 ± 0.12	0.899 ± 0.026	0.853 ± 0.015	0.81 ± 0.035	0.769 ± 0.065	0.719 ± 0.073	0.669 ± 0.07	0.644 ± 0.06	0.601 ± 0.047
coculture fibroblast: HCFa	0.922 ± 0.037	0.875 ± 0.011	0.843 ± 0.069	0.774 ± 0.069	0.726 ± 0.12	0.667 ± 0.12	0.623 ± 0.17	0.591 ± 0.18	0.541 ± 0.19
coculture fibroblast: HCPF	0.809 ± 0.03	0.911 ± 0.017	0.845 ± 0.013	0.784 ± 0.0099	0.731 ± 0.015	0.6632 ± 0.0044	0.619 ± 0.006	0.599 ± 0.0088	0.544 ± 0.023
coculture fibroblast: HHSteC	0.898 ± 0.016	0.8696 ± 0.0011	0.859 ± 0.012	0.7727 ± 0.003	0.7244 ± 0.003	0.6846 ± 0.0027	0.66069 ± 5.9e-05	0.639 ± 0.0071	0.613 ± 0.025
coculture fibroblast: HMF	0.934 ± 0.087	0.884 ± 0.027	0.839 ± 0.012	0.781 ± 0.0022	0.72 ± 0.015	0.652 ± 0.011	0.616 ± 0.032	0.58 ± 0.042	0.552 ± 0.048
coculture fibroblast: HPFa	0.926 ± 0.04	0.844 ± 0.011	0.848 ± 0.05	0.753 ± 0.071	0.711 ± 0.091	0.665 ± 0.11	0.648 ± 0.14	0.632 ± 0.14	0.594 ± 0.15
coculture fibroblast: HUF	0.937 ± 0.033	0.8708 ± 0.0045	0.826 ± 0.039	0.747 ± 0.054	0.685 ± 0.084	0.634 ± 0.088	0.602 ± 0.11	0.573 ± 0.11	0.551 ± 0.12
coculture fibroblast: Hs5	0.956 ± 0.013	0.902 ± 0.03	0.855 ± 0.023	0.791 ± 0.025	0.768 ± 0.023	0.712 ± 0.031	0.684 ± 0.035	0.663 ± 0.038	0.636 ± 0.033
coculture fibroblast: Hs27A	0.849 ± 0.041	0.918 ± 0.11	0.922 ± 0.011	0.884 ± 0.026	0.853 ± 0.037	0.823 ± 0.023	0.802 ± 0.019	0.782 ± 0.015	0.748 ± 0.023
coculture fibroblast: Hs343T	0.876 ± 0.11	0.886 ± 0.045	0.818 ± 0.021	0.7556 ± 0.0025	0.71 ± 0.038	0.649 ± 0.048	0.608 ± 0.069	0.584 ± 0.079	0.549 ± 0.11
coculture fibroblast: WS1	0.852 ± 0.012	0.776 ± 0.012	0.746 ± 0.034	0.681 ± 0.038	0.62 ± 0.059	0.595 ± 0.077	0.575 ± 0.074	0.556 ± 0.075	0.552 ± 0.071

± gives the standard deviation of the averaged measurements. Values are relative to the signal before dosing, not to a vehicle control; the signal also falls without drug.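 Fibroblast labels denote human fibroblasts, mainly primary ones from uterus (C12385, HUF), lung (H6013), bone (Hs27A), adrenal (HADF) and skin (WS1), plus mammary HMF and breast cancer-associated Hs343T. Cancer cells are basal-like or mesenchymal-like triple-negative breast cancer lines. A hit is a response shift exceeding 3x replicate standard deviation. The tissue of the other fibroblasts is not given here.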
